For two substances, binding results are on record in patent publication US20070054846A1, “Bcl-w structure and uses therefor” (priority 2002, published 2007).

By UniProt entry, the sequences of proteins in these tests, tags left out. Where a name states a change or a piece, a line headed by the entry shows the natural chain unless it says otherwise. Chains listed by the source or under a name are the forms on record and can include a tag or linker.
EE-BimL (O54918, form named): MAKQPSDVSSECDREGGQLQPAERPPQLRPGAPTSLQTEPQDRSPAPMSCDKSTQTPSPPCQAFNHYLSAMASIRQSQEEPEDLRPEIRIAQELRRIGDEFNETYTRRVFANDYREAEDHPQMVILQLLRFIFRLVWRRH
BimLΔC27 (O54918, form named): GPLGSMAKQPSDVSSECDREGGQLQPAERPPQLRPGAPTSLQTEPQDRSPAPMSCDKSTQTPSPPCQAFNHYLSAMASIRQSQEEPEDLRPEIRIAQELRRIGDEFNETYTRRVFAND
UniProt Q07817: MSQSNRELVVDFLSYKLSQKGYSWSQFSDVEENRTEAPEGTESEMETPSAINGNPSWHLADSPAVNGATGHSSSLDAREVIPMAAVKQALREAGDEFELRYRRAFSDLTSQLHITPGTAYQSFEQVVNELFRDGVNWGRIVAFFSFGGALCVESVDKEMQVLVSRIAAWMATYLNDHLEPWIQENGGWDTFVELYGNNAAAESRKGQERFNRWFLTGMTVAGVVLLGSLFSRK

Results are given in words; binding and its absence hold for the method and conditions named. Binding seen in cells or lysates may run through a third protein. Some results given as binding are weak or reduced against the parent protein; the word gives no strength.

The target of assay [1] is EE-BimL (UniProt O54918). The assay can be described thus: co-immunoprecipitation from 35S-labelled 293T lysates with anti-FLAG (α-F), anti-EE (α-E) and control anti-HA (α-H) [upper left gel].
Assay [2] deals with EE-BimL (UniProt O54918). The assay can be described thus: co-immunoprecipitation from cell extracts.
The target in assay [3] is BimLΔC27 (mouse) (UniProt O54918). The assay is described as follows: GST pull-down.
The target is the same in assay [4]. The assay is described as follows: GST pull-down, stained SDS-PAGE.

Take “FLAG Bcl-xL (full-length) (from UniProt Q07817 1-233)”: the binding result with EE-BimL [1] and with EE-BimL [2] was “binds” throughout.

As to “GST-Bcl-xL (full-length) (from UniProt Q07817 1-233)”, the binding result in the assay with BimLΔC27 (mouse) [3] and with BimLΔC27 (mouse) [4] was “binds” throughout.
